Data on one compound can be found in publication PMC4102417 (PLoS Neglected Tropical Diseases, 2014).

A word on the EC50: it is the concentration needed to bring the measured effect to its halfway point.

This assay has as its system T. cruzi (Tulahuen strain). Description: microbe, parasite or virus in culture. The note with it: Trypanosoma cruzi, Fibroblast, read-out: T. cruzi EC50 (nM). Format: cell-based. As for the experimental part: Compounds were tested against T. cruzi (Tulahuen strain) stably expressing the beta-galactosidase gene as previously described. […] Fibroblasts were plated at a density of 2×10^3 per well in 96 well tissue culture plates. After 24 hours of incubation, 1×10^4 trypomastigotes/well were added to the fibroblasts and incubated for 4 hours before addition of the test compounds from the Spectrum Collection (10 µM final concentration). Cultures were incubated at 37°C for 5 days, then developed with chlorophenol red β-D-galactopyranoside as previously described. The percent inhibition is reported with standard deviation of the mean. […] Z-prime values were calculated for each 96-well plate based on positive (4 wells) and negative controls (4 wells).

`O=C(CCCN1CCC2(CC1)C(=O)NCN2c1ccccc1)c1ccc(F)cc1` [SPIPERONE, 8-[4-(4-fluorophenyl)-4-oxobutyl]-1-phenyl-1,3,8-triazaspiro[4.5]decan-4-one]: the EC50 came out at 7900 nM.
